PubChem BioAssay AID686938, Drosophila RNAi Screening Center, 2013
In all, the deposit lists about 23,000 reagents; this is an unselected part of those with a known target gene and a result. In the full data, 75 (0.33%) got an active call. 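Raw plate signals without normalisation; calls rest on plate z-scores that were not deposited; ratio present for only 364 wells.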 Unmarked entries are inactive. Names joined by + are all predicted targets of the reagent. Not stated in the record: the dose of the treatment.

- Aim: 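Looking for CRAC channel components and the factors controlling them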 (primary screen)
- Cells: Drosophila S2R+ cells
- Reagent: long dsRNA against Drosophila genes, about 0.25 µg dsRNA per well, roughly 10,000 cells
- Timing: 5 days of knock-down before the calcium assay
- Treatment: thapsigargin (SERCA pump blocker) to empty calcium stores; entry signal taken 4 min after adding it
- Measurement: 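Duplicate raw fluo-4 intensities per well from a plate reader, at rest and four minutes after thapsigargin emptied calcium stores; entry-to-rest ratio filled for only some wells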
- Reading the numbers: calcium entry signal: higher = stronger calcium signal after store depletion; entry to resting ratio: higher = more calcium entry relative to resting level; resting calcium signal: higher = higher resting calcium signal
- Call rule: 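Hit if the duplicate-averaged plate z-score for entry over resting signal is under −3; wells with weak total dye signal (Fmax z < −2) or more than 5 off-targets removed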
- Meaning of the calls: active = strongly reduced calcium entry; inactive = no strong reduction

| gene knocked down | dsRNA | calcium entry signal, replicate 1 (fluorescence units) | calcium entry signal, replicate 2 (fluorescence units) | entry to resting ratio | resting calcium signal, replicate 1 (fluorescence units) | resting calcium signal, replicate 2 (fluorescence units) |
| --- | --- | --- | --- | --- | --- | --- |
| CG14207 | DRSC19562 | 2.78e7 | 3.18e7 | – | 1.41e7 | 1.37e7 |
| CG14207 | DRSC19563 | 3.96e7 | 4.03e7 | – | 2.09e7 | 1.82e7 |
| Mpc1 | DRSC14770 | 2.15e7 | 2.29e7 | – | 9.90e6 | 9.40e6 |
| CG6813 | DRSC16122 | 3.72e7 | 3.86e7 | – | 1.82e7 | 1.98e7 |
| Dhx15 | DRSC06036 | 4.19e7 | – | – | 2.31e7 | – |
| Sprn | DRSC10132 | 2.58e7 | 3.69e7 | – | 1.41e7 | 1.60e7 |
| Kat60 | DRSC12378 | 3.11e7 | 2.41e7 | – | 1.49e7 | 1.14e7 |
| CG13218 | DRSC06340 | 1.69e7 | 3.47e7 | – | 9.34e6 | 1.46e7 |
| CG18130 | DRSC19790 | 4.13e7 | 5.59e7 | – | 2.03e7 | 2.73e7 |
| CG14075 | DRSC10080 | 1.78e7 | 3.81e7 | – | 9.59e6 | 1.70e7 |
| Octbeta2R | DRSC12917 | 3.15e7 | 5.29e7 | – | 1.66e7 | 2.23e7 |
| Octbeta2R | DRSC15350 | 3.80e7 | 4.03e7 | – | 2.04e7 | 2.10e7 |
| Octbeta2R | DRSC16165 | 4.14e7 | 3.59e7 | – | 2.05e7 | 1.79e7 |
| CG13841 | DRSC14691 | 2.14e7 | 2.66e7 | – | 1.42e7 | 1.46e7 |
| brwl | DRSC01080 | 3.73e7 | 3.18e7 | – | 1.89e7 | 1.43e7 |
| brwl | DRSC02729 | 4.41e7 | – | – | 2.07e7 | – |
| CG6761 | DRSC10705 | 5.29e7 | 3.93e7 | – | 3.38e7 | 1.63e7 |
| CTCF | DRSC11004 | 4.62e7 | 3.36e7 | – | 3.26e7 | 1.48e7 |
| CG17234 | DRSC00490 | 2.83e7 | 3.13e7 | – | 1.42e7 | 1.46e7 |
| CG5906 | DRSC10557 | 2.77e7 | 3.69e7 | – | 1.53e7 | 1.61e7 |
| CG42854 | DRSC19173 | 3.14e7 | 3.88e7 | – | 1.46e7 | 1.58e7 |
| CG5386 | DRSC15788 | 5.42e7 | 5.99e7 | – | 4.79e7 | 3.15e7 |
| sob | DRSC00838 | 3.22e7 | 3.91e7 | – | 1.58e7 | 1.90e7 |
| CG9018 | DRSC08618 | 3.19e7 | 4.33e7 | – | 1.65e7 | 1.75e7 |

Only “calcium entry signal, replicate 1 (fluorescence units)”, for 6 of the entries above:
brwl [DRSC02729]: 4.41e7
CG6761 [DRSC10705]: 5.29e7
CTCF [DRSC11004]: 4.62e7
CG17234 [DRSC00490]: 2.83e7
CG5906 [DRSC10557]: 2.77e7
CG42854 [DRSC19173]: 3.14e7

The results go on:
| gene knocked down | dsRNA | calcium entry signal, replicate 1 (fluorescence units) | calcium entry signal, replicate 2 (fluorescence units) | entry to resting ratio | resting calcium signal, replicate 1 (fluorescence units) | resting calcium signal, replicate 2 (fluorescence units) |
| --- | --- | --- | --- | --- | --- | --- |
| Pros28.2 (retired record) | DRSC16800 | 4.36e7 | 4.70e7 | – | 6.21e7 | 2.26e7 |
| REG | DRSC20273 | 4.18e7 | 4.96e7 | – | 2.03e7 | 2.29e7 |
| CG31464 | DRSC14345 | 4.62e7 | 3.66e7 | – | 2.06e7 | 1.74e7 |
| CG14036 | DRSC02361 | 3.65e7 | 3.57e7 | – | 1.80e7 | 1.69e7 |
| Nnf1b | DRSC22080 | 4.09e7 | 6.50e7 | – | 1.88e7 | 3.41e7 |
| GILT3 | DRSC14672 | 3.55e7 | 3.44e7 | – | 1.73e7 | 1.44e7 |
| CG5783 | DRSC02894 | 5.09e7 | 3.35e7 | – | 2.07e7 | 1.60e7 |
| Marf1 | DRSC03747 | 5.55e7 | 5.07e7 | – | 2.79e7 | 2.09e7 |
| Marf1 | DRSC03774 | 3.64e7 | 6.96e7 | – | 1.65e7 | 2.69e7 |
| CG32191 | DRSC10522 | 4.33e7 | 5.93e7 | – | 2.20e7 | 2.48e7 |
| Vha44 | DRSC07572 | 3.78e7 | 3.84e7 | – | 2.33e7 | 2.33e7 |
| Vha44 | DRSC07573 | 5.28e7 | 4.52e7 | – | 2.21e7 | 2.18e7 |
| CG10466 | DRSC02060 | 3.25e7 | 4.25e7 | – | 1.73e7 | 1.81e7 |
| asRNA:CR31084 | DRSC21649 | 3.83e7 | 3.67e7 | – | 1.90e7 | 1.60e7 |
| CG14563 | DRSC11724 | 3.46e7 | 6.39e7 | – | 1.62e7 | 2.31e7 |
| CG6805 | DRSC07011 | 4.54e7 | 4.30e7 | – | 2.07e7 | 2.02e7 |
| NfI | DRSC17158 | 5.80e7 | 5.71e7 | 2.2 | 2.65e7 | 2.13e7 |
| CG9410 + CG15908 | DRSC04976 | 4.39e7 | 3.99e7 | – | 2.15e7 | 1.95e7 |
| CG9410 + CG15908 | DRSC05001 | 4.45e7 | 4.09e7 | – | 2.24e7 | 1.95e7 |
| tous | DRSC04464 | 3.65e7 | – | – | 1.83e7 | – |
| Pxn | DRSC08685 | 3.85e7 | 3.83e7 | – | 1.85e7 | 1.88e7 |
| Ythdf | DRSC16036 | 4.26e7 | 4.94e7 | – | 1.92e7 | 2.09e7 |
| Ythdf | DRSC16037 | 3.65e7 | 4.39e7 | – | 1.64e7 | 1.83e7 |
| SLC5A11 | DRSC03088 | 5.27e7 | – | – | 3.12e7 | – |
| CG32625 | DRSC18994 | 2.33e7 | 2.40e7 | – | 1.26e7 | 1.13e7 |
| CG40005 (retired record) + cta | DRSC03763 | 3.61e7 | 6.23e7 | – | 1.60e7 | 2.52e7 |
| LManVI | DRSC03224 | 2.53e7 | 3.61e7 | – | 1.21e7 | 1.55e7 |
| Ppi1 | DRSC15421 | 3.09e7 | 3.89e7 | – | 1.47e7 | 1.83e7 |
| CG11983 | DRSC14458 | 4.91e7 | 3.93e7 | – | 2.26e7 | 1.77e7 |
| Ada1-1 + Ada1-2 | DRSC01220 | 5.63e7 | 3.37e7 | – | 2.79e7 | 1.69e7 |
| Ada1-1 + Ada1-2 | DRSC01222 | 4.43e7 | 3.52e7 | – | 2.31e7 | 1.82e7 |
| ey | DRSC17173 | 4.12e7 | 5.65e7 | 1.9 | 2.12e7 | 2.48e7 |
| CG31510 | DRSC14182 | 4.31e7 | 4.90e7 | – | 2.11e7 | 2.02e7 |
| CG42354 + CG42353 | DRSC20172 | 4.11e7 | 4.06e7 | – | 1.98e7 | 1.96e7 |
